Assay results: PubChem BioAssay AID1794845 (National Center for Advancing Translational Sciences (NCATS), 2023)
In all, about 6,900 compounds went through this assay and fewer than 10 were called active. The call rests on the fitted dose curve; in most records, active means well fitted curve in the direction sought with a large enough effect; inconclusive means small, poorly fitted or top-dose-only effect, or another doubt; inactive means no such curve, though single readings can be large or run the other way. Some of the results follow.

The chains behind the UniProt entries cited, without tags or fusion partners. Where a name states a change or a piece, a line headed by the entry shows the natural chain unless it says otherwise.
UniProt C7C422: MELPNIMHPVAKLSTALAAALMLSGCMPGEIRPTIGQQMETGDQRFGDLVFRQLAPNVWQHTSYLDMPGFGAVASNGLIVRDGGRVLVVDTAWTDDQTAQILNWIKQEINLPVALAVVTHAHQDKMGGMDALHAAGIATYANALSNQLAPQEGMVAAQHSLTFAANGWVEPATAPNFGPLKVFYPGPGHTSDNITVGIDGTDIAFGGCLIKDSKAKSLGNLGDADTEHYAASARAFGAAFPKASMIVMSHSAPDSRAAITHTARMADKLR

target: Metallo-beta-lactamase type 2 (Klebsiella pneumoniae) (UniProt C7C422); assay: qHTS to identify inhibitors of the New Delhi Metallo-beta-lactamase (NDM): primary screen against the NCATS Gemini Collection; details: NDM-1 enzyme, meropenem hydrolysis, absorbance 300 nm; at 38.4 µM (top of the series) unless noted; further: % of control where 0% means no effect
Summary of the method: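 NDM-1 at 2 nM final in 50 mM HEPES pH 7.0, 1 uM ZnSO4, 0.01% Tween20, preincubated >30 min with compound. Meropenem 50 uM final added; absorbance at 300 nm after 30 min.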

Activity % (negative = inhibition), inactive:
Cc1ccc(-c2cc3c(=O)n(CCNC(=O)c4cc(F)ccc4F)ccn3n2)c(C)c1 10.2%
O=C(O)CCn1ncc2cc(OCC3CCN(c4ncc(F)cn4)CC3)ccc21 5.14% [at 57.5 µM]
COc1ccc(CN2CCCCC23Cc2ccccc2CN(C(C)=O)C3)cc1 (centres undefined) 10.2%
Cc1csc(CN(C)C(=O)CC(c2ccccc2)c2ccc3c(c2)OCO3)n1 (centres undefined) 9.65%
c1ccc(Nc2cc3c(cn2)NCCN(Cc2cccs2)C3)cc1 61.5% [at 57.5 µM]
Cc1ccccc1OCc1nc(C2CN(C(=O)NC(C)C)C2)no1 -10.3%
COc1ccc(-n2c(=O)[nH]c3cccnc32)cc1OC 19.8% [at 57.5 µM]
CN(C)C(=O)CNC(=O)c1cccc(S(=O)(=O)NCCn2ccnc2)c1 4.12%
CC(C)(C)c1cc(C[C@H]2CNCC[C@H]2CC(=O)N2CCC(Cc3ccccc3)CC2)no1 -3.5%
CCC1(O)CCC12CCN(C(=O)C1CCCC1)CC2 (centres undefined) -3.78%
CC(C)NC(=O)c1nc(-c2ccc([S+](C)(=O)[O-])cc2)c2ccccn12 7.48%
COc1ccc(-c2cn3c(n2)CO[C@@H](CNC(=O)CCC(=O)O)C3)cc1 18.3% [at 57.5 µM]
CCOC(=O)CCNC(=O)N1CCCC(c2nc(-c3cnccn3)no2)CCNC(=O)CC1 (centres undefined) 45.2%
C#CCNC(=O)[C@H]1O[C@H](CCN(C)CC#C)CC[C@@H]1O 0.353% [at 77.1 µM]
O=C(c1ccc(Cl)cc1)N1CCC2(CC1)CC(c1ccccc1)=NO2 0.956%
O=C1NC2(CN(C(=O)c3ccccc3)C2)Oc2ccccc21 -0.352% [at 57.5 µM]
C[S+](=O)([O-])N1CC2(CCN(Cc3c[nH]c4ccccc34)CC2)Cc2ccccc21 -0.677%
Cn1cnnc1CC1CCN(C(=O)CN2CC(c3ccccc3)CC2=O)CC1 (centres undefined) 18.9%
O=C1NC2(CCCN(C(=O)c3ccc(F)cc3)C2)Oc2ccccc21 (centres undefined) 6.71% [at 57.5 µM]
O=C(Nc1ccccc1F)N1CC(Oc2ccc(-c3noc(-c4ccccc4)n3)cc2)C1 -0.126%
CCC1Oc2ccc(NC(=O)CC(C)(C)C)cc2CN(Cc2ccccc2F)C1=O (centres undefined) 1.15%
COc1ccc(OC)c(CNC(=O)c2cccc3c2CCN3C(=O)c2ccc(F)cc2)c1 8.45%
O=C(NCCc1ccccc1)Nc1cccn2ncnc12 6.21%
O=C(C1CCCN1C(=O)c1ccccc1)N1CCC(c2ccccc2)CC1 (centres undefined) -4.17%
COc1ccc([C@H]2C[C@@H](O)[C@@H](O)[C@@H]2NS(=O)(=O)c2ccc(Cl)cc2)cc1 6.57% [at 57.5 µM]
O=C(C1CCC1)N1CCC(Cc2nncn2Cc2ccccc2)CC1 11.9%
COc1cccc(N2CCN(C(=O)c3noc(-c4ccc(C)cc4)n3)CC2)c1 4.04%
COCCn1c(=O)c2c(n1Cc1ccccc1)CN(C(=O)Cc1cccc(F)c1)CC2 9.62% [at 57.5 µM]
Cc1nc(N2CCC(C(=O)NCCC3=CCCCC3)CC2)cc(C(F)(F)F)n1 21.1%
COc1cc(CC2(CCC(=O)N3CCC(Oc4cccc(F)c4)CC3)CCC(=O)N2)ccc1F (centres undefined) 9.28%
Cc1ccccc1CC(=O)Nc1cccc(-c2nnc3n2CCCC3)c1 0.602%
CC(=O)N1CCC(N2CCOC[C@H]2c2ncc(C(C)(C)C)[nH]2)CC1 -9.18% [at 57.5 µM]
O=C1N(Cc2cccc(F)c2F)CCCC1(O)CN1CCNCC1 (centres undefined) 10.3%
COCCN1C(=O)c2ccccc2C(C(=O)Nc2cc(C)ccn2)C12CCCC2 (centres undefined) 3.52%
Cc1nc(-c2c3n(c(=O)n(CC#N)c2=O)CCCCC3)no1 0.369%
O=c1n(-c2ccc(C(F)(F)F)cc2)nc2n1CCN([S+](=O)([O-])c1ccccc1)C2 8.02%
COC(=O)c1ccc(CN2C[C@@H]3C(C)(C)COc4ccc(OC)cc4[C@]3(CO)C2)cc1 38.3%
O=C(NC[C@H]1O[C@@H](Cc2nc(-c3ccc(OC(F)(F)F)cc3)no2)[C@H](O)[C@@H]1O)C1CC1 7.67%
COc1ccc(NC(=O)N[C@H]2C[C@@H](c3nc(-c4ccncc4)no3)N(C)C2)cc1 2.3% [at 57.5 µM]
Cc1c(NC(=O)CCc2cc3n(n2)CCNC3)cccc1-c1nncn1C 57.5%
O=[S+]1([O-])N(c2ccccc2)C[C@@H](O)[C@]12CCN(Cc1ccc(C(F)(F)F)nc1)C2 -3.16%
O=C(c1ccc(C(F)(F)F)cc1)N1CCCC(C(=O)N2CCC(N3Cc4cccn4C3=O)CC2)C1 (centres undefined) 45.8%
COc1ccccc1C(=O)N1Cc2c(C(=O)NC3CC3)nn(C)c2C1 0.444%
O=C1NCCCN1C1CCN(Cc2ccncc2)CC1 -0.852% [at 57.5 µM]
Cc1nn(-c2ccccc2)c2c1C(C)N(C1CCN(C(=O)NC3CCCC3)C1)C2=O (centres undefined) 43.7%
O[C@@H]1C[C@@H](c2nc(-c3ccncc3)no2)N(Cc2cccs2)C1 5.58% [at 57.5 µM]
COc1ccc(OC2CCN(C3CCCC3)CC2)c(C(=O)NCCCN2CCCC2=O)c1 -0.186%
NC(c1ccccc1)c1nnc2n1CCN(C(=O)N1CCOCC1)C2 (centres undefined) -0.26%
COc1ccc(C(=O)Nc2nc3c(s2)C[C@@H]2[C@](C)(CO)[C@H](O)CC[C@@]2(C)[C@@H]3CC(=O)NC2CCCC2)cc1 5.73%
Cc1occc1C(=O)N1CC(F)(F)C[C@H]1c1nnc(C2CC2)o1 1.73%
Clc1ccccc1C1(c2ccnc(C3CC3)n2)CCNCC1 0.0078%
CN(C)c1ccc(CN2CCC(N3CCCCCC3=O)CC2)cc1 1.4% [at 57.5 µM]
CN(C)Cc1cc(C[C@@H]2CC[C@H](O)[C@@H](CNC(=O)N3CCOCC3)O2)no1 0.0319% [at 57.5 µM]
CCCN(C/C=C/c1ccccc1)C(=O)c1cccc(OCC(N)=O)c1 2.07%
Cn1c(=O)[nH]cc(CC(=O)N2C[C@H](C3CC3)[C@@H](N)C2)c1=O 3.75%
CC(C)c1nc2c(c(-c3ccc(O)cc3)n1)CCN(CC1CCCCC1)CC2 3.35%
Cc1ccc(N2CC(c3noc(-c4ccc5ccccc5n4)n3)CC2=O)cc1 (centres undefined) -0.844%
COCCn1ncc(N2CCC(C(=O)N3CCN(C(C)C)CC3)C2)cc1=O (centres undefined) 7.56%
CCOc1ccccc1NC(=O)CN1C(=O)C(c2ccccc2)=NC12CCCCCC2 2.79%
O=C(NCc1ccc(N2CCOCC2)cc1)c1cc[nH]c1C1CCCNC1 (centres undefined) 4.79%
Cn1ccnc1CN1C(=O)CO[C@H]2CN(C(=O)c3cnccn3)C[C@H]21 1.15% [at 57.5 µM]
COc1c(F)cccc1C(=O)N1CCc2onc(-c3ccccc3F)c2C1 14.1%
O=C(C1CCC1)N1CCC2(CC1)CC(N1CCCCC1)CCO2 (centres undefined) 6.15%
Cc1ccc(-c2cn(C3CN(C(=O)C4CCC4)C3)nn2)cc1 7.55%
CC(=O)N1CCC(C(=O)N2CCn3nc(Cc4ccccc4)cc3C2)CC1 -2.11%
CC(c1ccc(-c2cc(N)ncn2)cc1)N1CCCCC1 (centres undefined) -5.09%
O=C(c1cccnc1)N1CCN(c2nnc3ccc(Cl)cn23)CC1 0.878%
NCCc1noc(-c2ccccc2)n1 -0.994%
COCCN1CC(C(=O)N2CCN(c3ncccc3C#N)CC2)CCC1=O (centres undefined) -3.42%
COc1ccc(-c2nc(Cn3c(-c4ccc(Cl)cc4)nc(C)c(CCO)c3=O)c(C)o2)cc1 7.93%
Cc1ccc(CN2C(=O)NC3(CCN(C(=O)Cc4cccc(F)c4)CC3)C2=O)cc1 -5.3%
O=C(NCc1nc(-c2ncccn2)no1)C1CC2(CCNCC2)CN1 (centres undefined) -0.57%
O=C(N[C@@H]1CN(C2CCOCC2)CC[C@@H]1CO)c1ccccc1 -2.7%
Cc1csc(S(=O)(=O)N2CC[C@@H]3[C@@H](CCC(=O)N3CCN)C2)c1 1.68%
C1CCC(COCCc2noc(C3CNC3)n2)C1 11.4%
CCC(CNc1nc(CCN)nc2ccccc12)N1CCN(C)CC1 (centres undefined) 2.06%
O=S(=O)(NCc1cccnc1Oc1ccc(F)cc1F)c1cccnc1 1.43%
Cc1cccc(C(=O)N2CC(Oc3ccc(-c4noc(C5CCOCC5)n4)cc3)C2)c1 3.06%
CCN1c2cc(C(=O)N3CCN(c4cccc(C)c4)CC3)ccc2C(=O)N2CCCCC21 (centres undefined) 1.51%
CC[C@H]1CN(S(C)(=O)=O)CC[C@H]1CC(=O)NCc1ccco1 -1.85% [at 57.5 µM]
Cc1ccc(N2C(=O)N[C@@H]3CCN(S(=O)(=O)c4ccc(Cl)cc4)[C@@H]3C2=O)cc1 11.7% [at 57.5 µM]
O=C(c1ccc(Cl)nc1)N1CCC(C(=O)N2CCC(N3CCCC3=O)CC2)CC1 0.0669%
CN(C)Cc1nnc(C2CCN(C(=O)CCNS(C)(=O)=O)CC2)n1C 3.36%
COCc1cccc(-c2n[nH]c3c2CC(=O)N(c2ccccc2)C3)c1 0.268% [at 57.5 µM]

5 structures from above, ordered by length of the SMILES, rising.
Activity % (negative = inhibition), inactive:
O=C1NC2(CCCN(C(=O)c3ccc(F)cc3)C2)Oc2ccccc21 (centres undefined) 6.71% [at 57.5 µM]
Cn1cnnc1CC1CCN(C(=O)CN2CC(c3ccccc3)CC2=O)CC1 (centres undefined) 18.9%
COc1ccc(OC2CCN(C3CCCC3)CC2)c(C(=O)NCCCN2CCCC2=O)c1 -0.186%
O=C(c1ccc(Cl)nc1)N1CCC(C(=O)N2CCC(N3CCCC3=O)CC2)CC1 0.0669%
O=C(Nc1ccccc1F)N1CC(Oc2ccc(-c3noc(-c4ccccc4)n3)cc2)C1 -0.126%
